# According to the supplement of paper PMC8728848:
# This is one part of the list.
# Experiments:
# Experiment in all cases: glycan array binding signal (z-score within array); higher = stronger binding
# Conditions in all cases: glycan notation: IUPAC condensed, linker removed
# [1] = molecular target: Man(a1-2)Man(a1-3)[Man(a1-2)Man(a1-6)]Man(a1-6)[Man(a1-2)Man(a1-2)Man(a1-3)]Man(b1-4)GlcNAc(b1-4)GlcNAc
# Method in brief: (§1)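 Glycan array binding is given as a within-array Z-score, which can be read as non-binding when negative. The arrays, 3228 of them, came from the Consortium for Functional Glycomics database and were retained only where the protein sequence was available. Z-scores were averaged across arrays of the same protein sequence at different concentrations or buffers and across linkers.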
# [2] = molecular target: Man(a1-2)Man(a1-3)[Man(a1-6)]Man(a1-6)[Man(a1-2)Man(a1-3)]Man(b1-4)GlcNAc(b1-4)GlcNAc
# Method in brief: as §1
# [3] = molecular target: Man(a1-2)Man(a1-6)[Man(a1-3)]Man(a1-6)[Man(a1-2)Man(a1-2)Man(a1-3)]Man
# Method in brief: as §1
# [4] = molecular target: Man(a1-2)Man(a1-6)[Man(a1-3)]Man(a1-6)[Man(a1-2)Man(a1-2)Man(a1-3)]Man(b1-4)GlcNAc(b1-4)GlcNAc
# Method in brief: as §1
# Man(a1-3)[Man(a1-6)]Man = molecular target: Man(a1-3)[Man(a1-6)]Man
# Method in brief: as §1
# [5] = molecular target: Man(a1-3)[Man(a1-6)]Man(a1-6)[Man(a1-2)Man(a1-3)]Man(b1-4)GlcNAc(b1-4)GlcNAc
# Method in brief: as §1
# [6] = molecular target: Man(a1-3)[Man(a1-6)]Man(a1-6)[Man(a1-3)]Man
# Method in brief: as §1
# [7] = molecular target: Man(a1-3)[Man(a1-6)]Man(a1-6)[Man(a1-3)]Man(b1-4)GlcNAc(b1-4)GlcNAc
# Method in brief: as §1
# [8] = molecular target: Man(a1-3)[Man(a1-6)]Man(b1-4)GlcNAc(b1-4)GlcNAc
# Method in brief: as §1
# [9] = molecular target: Man(a1-3)[Man(a1-6)]Man(b1-4)GlcNAc(b1-4)[Fuc(a1-6)]GlcNAc
# Method in brief: as §1
# Man(a1-6)Man = molecular target: Man(a1-6)Man
# Method in brief: as §1
# Man(b1-4)GlcNAc = molecular target: Man(b1-4)GlcNAc
# Method in brief: as §1
# MurNAc(b1-4)GlcNAc = molecular target: MurNAc(b1-4)GlcNAc
# Method in brief: as §1
# Neu5Ac(a2-3)Gal = molecular target: Neu5Ac(a2-3)Gal
# Method in brief: as §1
# [10] = molecular target: Neu5Ac(a2-3)Gal(b1-3)GalNAc
# Method in brief: as §1
# [11] = molecular target: Neu5Ac(a2-3)Gal(b1-3)GalNAc(b1-3)Gal(a1-4)Gal(b1-4)Glc
# Method in brief: as §1
# [12] = molecular target: Neu5Ac(a2-3)Gal(b1-3)GalNAc(b1-4)[Neu5Ac(a2-3)]Gal(b1-4)Glc
# Method in brief: as §1
# [13] = molecular target: Neu5Ac(a2-3)Gal(b1-3)GalNAc(b1-4)[Neu5Ac(a2-8)Neu5Ac(a2-3)]Gal(b1-4)Glc
# Method in brief: as §1
# [14] = molecular target: Neu5Ac(a2-3)Gal(b1-3)GalNAc6S
# Method in brief: as §1
# [15] = molecular target: Neu5Ac(a2-3)Gal(b1-3)GlcNAc
# Method in brief: as §1
# [16] = molecular target: Neu5Ac(a2-3)Gal(b1-3)GlcNAc(b1-2)Man
# Method in brief: as §1
# [17] = molecular target: Neu5Ac(a2-3)Gal(b1-3)GlcNAc(b1-2)Man(a1-3)[GlcNAc(b1-4)][Neu5Ac(a2-3)Gal(b1-3)GlcNAc(b1-2)Man(a1-6)]Man(b1-4)GlcNAc(b1-4)GlcNAc
# Method in brief: as §1
# [18] = molecular target: Neu5Ac(a2-3)Gal(b1-3)GlcNAc(b1-2)Man(a1-3)[Neu5Ac(a2-3)Gal(b1-3)GlcNAc(b1-2)Man(a1-6)]Man(b1-4)GlcNAc(b1-4)GlcNAc
# Method in brief: as §1
# [19] = molecular target: Neu5Ac(a2-3)Gal(b1-3)GlcNAc(b1-3)Gal(b1-3)GlcNAc
# Method in brief: as §1
# [20] = molecular target: Neu5Ac(a2-3)Gal(b1-3)GlcNAc(b1-3)Gal(b1-4)GlcNAc
# Method in brief: as §1
# [21] = molecular target: Neu5Ac(a2-3)Gal(b1-3)GlcNAc(b1-3)GalNAc
# Method in brief: as §1
# [22] = molecular target: Neu5Ac(a2-3)Gal(b1-3)GlcNAc(b1-4)Gal(b1-4)Glc
# Method in brief: as §1
# [23] = molecular target: Neu5Ac(a2-3)Gal(b1-3)GlcNAc(b1-6)GalNAc
# Method in brief: as §1
# [24] = molecular target: Neu5Ac(a2-3)Gal(b1-3)GlcNAc6S
# Method in brief: as §1
# [25] = molecular target: Neu5Ac(a2-3)Gal(b1-3)[Fuc(a1-4)]GlcNAc
# Method in brief: as §1
# [26] = molecular target: Neu5Ac(a2-3)Gal(b1-3)[Fuc(a1-4)]GlcNAc(b1-3)Gal(b1-3)[Fuc(a1-4)]GlcNAc
# Method in brief: as §1
# [27] = molecular target: Neu5Ac(a2-3)Gal(b1-3)[Fuc(a1-4)]GlcNAc(b1-3)Gal(b1-4)[Fuc(a1-3)]GlcNAc
# Method in brief: as §1
# [28] = molecular target: Neu5Ac(a2-3)Gal(b1-3)[GlcNAc(b1-6)]GalNAc
# Method in brief: as §1
# [29] = molecular target: Neu5Ac(a2-3)Gal(b1-3)[Neu5Ac(a2-6)]GalNAc
# Method in brief: as §1
# [30] = molecular target: Neu5Ac(a2-3)Gal(b1-3)[Neu5Ac(a2-6)]GlcNAc(b1-3)[Fuc(a1-3)[Gal(b1-4)]GlcNAc(b1-6)]Gal(b1-4)Glc
# Method in brief: as §1
# [31] = molecular target: Neu5Ac(a2-3)Gal(b1-3)]Neu5Ac(a2-3)Gal(b1-4)]GlcNAc
# Method in brief: as §1
# Neu5Ac(a2-3)Gal(b1-4)Glc = molecular target: Neu5Ac(a2-3)Gal(b1-4)Glc
# Method in brief: as §1
binder,measurement,setting,value
Pbx2CASH domain (Cryptococcus neoformans) (protein) GIPGPNRLYRLSGPIIFTAADQEIATYGYPTGSERAVLRVEGRNTATAIQGDCRRCARVSVKNLVVDGNRKKLGRMRDFQLATGLVVLGGNEGQSIQNSWIKNPRGFTAIHIREGDKLQCSGARVEKNEIGPVGEEYDPEKDGDDPEMSPLGRPLADGVSIACRDSFIRDNTFRDNTDAAIVVYCSPGTLIHA,glycan array binding signal (z-score),[1],0.931
same,glycan array binding signal (z-score),[2],-0.457
same,glycan array binding signal (z-score),[3],-0.354
same,glycan array binding signal (z-score),[4],-0.098
same,glycan array binding signal (z-score),Man(a1-3)[Man(a1-6)]Man,-0.351
same,glycan array binding signal (z-score),[5],-0.454
same,glycan array binding signal (z-score),[6],-0.1
same,glycan array binding signal (z-score),[7],0.392
same,glycan array binding signal (z-score),[8],0.243
same,glycan array binding signal (z-score),[9],-0.459
same,glycan array binding signal (z-score),Man(a1-6)Man,-0.514
same,glycan array binding signal (z-score),Man(b1-4)GlcNAc,-0.401
same,glycan array binding signal (z-score),MurNAc(b1-4)GlcNAc,-0.63
same,glycan array binding signal (z-score),Neu5Ac(a2-3)Gal,-0.926
same,glycan array binding signal (z-score),[10],0.801
same,glycan array binding signal (z-score),[11],-0.528
same,glycan array binding signal (z-score),[12],-0.487
same,glycan array binding signal (z-score),[13],-0.308
same,glycan array binding signal (z-score),[14],-0.777
same,glycan array binding signal (z-score),[15],-0.147
same,glycan array binding signal (z-score),[16],3.35
same,glycan array binding signal (z-score),[17],0.248
same,glycan array binding signal (z-score),[18],0.27
same,glycan array binding signal (z-score),[19],-0.391
same,glycan array binding signal (z-score),[20],0.239
same,glycan array binding signal (z-score),[21],0.011
same,glycan array binding signal (z-score),[22],-0.379
same,glycan array binding signal (z-score),[23],-0.644
same,glycan array binding signal (z-score),[24],-0.247
same,glycan array binding signal (z-score),[25],-0.813
same,glycan array binding signal (z-score),[26],-0.211
same,glycan array binding signal (z-score),[27],-0.049
same,glycan array binding signal (z-score),[28],-0.249
same,glycan array binding signal (z-score),[29],0.256
same,glycan array binding signal (z-score),[30],-0.803
same,glycan array binding signal (z-score),[31],-0.117
same,glycan array binding signal (z-score),Neu5Ac(a2-3)Gal(b1-4)Glc,-0.228

# Given tab-delimited: entries from further up.
binder	measurement	setting	value
Pbx2CASH domain (Cryptococcus neoformans) (protein) GIPGPNRLYRLSGPIIFTAADQEIATYGYPTGSERAVLRVEGRNTATAIQGDCRRCARVSVKNLVVDGNRKKLGRMRDFQLATGLVVLGGNEGQSIQNSWIKNPRGFTAIHIREGDKLQCSGARVEKNEIGPVGEEYDPEKDGDDPEMSPLGRPLADGVSIACRDSFIRDNTFRDNTDAAIVVYCSPGTLIHA	glycan array binding signal (z-score)	Neu5Ac(a2-3)Gal	-0.926
same	glycan array binding signal (z-score)	[10]	0.801
same	glycan array binding signal (z-score)	[11]	-0.528
